Test results: the supplement of paper PMC4604168 (melanoma cell lines)
The list shows a part of the results. Many values rest on one well or one pass, so single values are uncertain.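 Imaging used 1,536-well plates; nuclei positive for cleaved PARP by antibody were divided by total DNA-stained nuclei to yield the apoptosis fraction. Doses for screening kept most cells viable, and cell lines differ markedly in resting and induced cleaved-PARP levels.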

Assays:
Test in all cases: cleaved PARP positive nuclei fraction relative to DMSO control; melanoma cells; higher = more apoptosis
Settings in all cases: library dose: low library concentration; 72 h
501Mel = test system: 501Mel
A101D = test system: A101D
A2058 = test system: A2058
A375 = test system: A375
C32 = test system: C32
CBRC013 = test system: CBRC013 (line from a melanoma biopsy)
CBRC014 = test system: CBRC014 (line from a melanoma biopsy)
CBRC016 = test system: CBRC016 (line from a melanoma biopsy)
CBRC017 = test system: CBRC017 (line from a melanoma biopsy)
CBRC034 = test system: CBRC034 (line from a melanoma biopsy)
COLO792 = test system: COLO792
COLO800 = test system: COLO800
COLO829 = test system: COLO829
G361 = test system: G361
IPC-298 = test system: IPC-298
IST-MEL1 = test system: IST-MEL1
LB2518-MEL = test system: LB2518-MEL
LOXIMVI = test system: LOXIMVI
CBRC008 = test system: CBRC008 (line from a melanoma biopsy)

Row | Compound | cleaved PARP positive nuclei fraction (501Mel) | cleaved PARP positive nuclei fraction (A101D) | cleaved PARP positive nuclei fraction (A2058) | cleaved PARP positive nuclei fraction (A375) | cleaved PARP positive nuclei fraction (C32) | cleaved PARP positive nuclei fraction (CBRC013) | cleaved PARP positive nuclei fraction (CBRC014) | cleaved PARP positive nuclei fraction (CBRC016) | cleaved PARP positive nuclei fraction (CBRC017) | cleaved PARP positive nuclei fraction (CBRC034) | cleaved PARP positive nuclei fraction (COLO792) | cleaved PARP positive nuclei fraction (COLO800) | cleaved PARP positive nuclei fraction (COLO829) | cleaved PARP positive nuclei fraction (G361) | cleaved PARP positive nuclei fraction (IPC-298) | cleaved PARP positive nuclei fraction (IST-MEL1) | cleaved PARP positive nuclei fraction (LB2518-MEL) | cleaved PARP positive nuclei fraction (LOXIMVI) | cleaved PARP positive nuclei fraction (CBRC008)
1 | Cc1nc(Nc2ncc(C(=O)Nc3c(C)cccc3Cl)s2)cc(N2CCN(CCO)CC2)n1 [dasatanib] + COc1ccc2c(c1)CCC1C2CCC2(C)C(NCCCCCCN3C(=O)C=CC3=O)CCC12 [U73122] (first compound 0.004 µM, partner dose 0.4 µM) | 51.6% | 66.8% | 72.2% | 221% | 407% | 128% | 116% | 143% | 73.4% | 143% | 178% | 294% | 144% | 161% | 107% | 49.8% | 97.5% | 29.9% | –
2 | CO[C@@H]1[C@H](N(C)C(=O)c2ccccc2)C[C@H]2O[C@]1(C)n1c3ccccc3c3c4c(c5c6ccccc6n2c5c31)C(=O)NC4 [Midostaurin] + Cn1cc(/C=C2\C(=O)Nc3cccnc32)c2ccccc21 [GW441756] (first compound 0.08 µM, partner dose 0.4 µM) | 34.8% | 208% | 113% | 160% | 91% | 65.7% | 86.9% | 188% | 72.3% | 80.9% | 96.4% | 195% | 78.5% | 88.4% | 57% | 212% | 185% | 80.9% | –
3 | CC(=O)c1c(C)c2cnc(Nc3ccc(N4CCNCC4)cn3)nc2n(C2CCCC2)c1=O [palbociclib] + COC(=O)c1sccc1S(=O)(=O)Nc1ccc(Nc2ccccc2)cc1OC [GSK0660] (first compound 0.04 µM, partner dose 1 µM) | 357% | 40.2% | 36.9% | – | 50.2% | – | 287% | 38.3% | 218% | – | 117% | 205% | 20.9% | 46.7% | 224% | 41.1% | 46.9% | 119% | 42.1%
4 | O=C(Nc1cccc(Cl)c1)Nc1ncc(CCNc2ncnc3ccsc23)s1 + COC(=O)c1sccc1S(=O)(=O)Nc1ccc(Nc2ccccc2)cc1OC [GSK0660] (first compound 0.0008 µM, partner dose 1 µM) | 114% | 58.4% | 79.1% | 38.3% | 46.5% | 88.2% | 103% | 22.4% | 77.5% | 104% | 98.7% | 52.3% | 119% | 50.1% | 33.3% | 277% | 79.8% | 50.8% | –
5 | O=C(Nc1cccc(Cl)c1)Nc1ncc(CCNc2ncnc3ccsc23)s1 + Oc1cc(-c2nc(-c3ccccc3)[nH]c2-c2ccncc2)ccc1Cl [L779450] (first compound 0.0008 µM, partner dose 0.2 µM) | 288% | 181% | 24.1% | 119% | 69.3% | 130% | 96.9% | 178% | 156% | 46% | 168% | 149% | 81.3% | 68.8% | 124% | 88.8% | 188% | 113% | –
6 | NC(=O)Nc1cc(-c2cccc(F)c2)sc1C(=O)N[C@H]1CCCNC1 + CCc1ccc(CCOc2ccc(CC3SC(=O)NC3=O)cc2)nc1 [pioglitazone] (first compound 0.02 µM, partner dose 2 µM) | 86.8% | 43.2% | 53.9% | 279% | 79.6% | 104% | 205% | 45.9% | 96.9% | 97.1% | 102% | 146% | 127% | 23.1% | 112% | 72.2% | 63.9% | 31.5% | –
7 | OCCn1cc(-c2cnc3nnn(Cc4ccc5ncccc5c4)c3n2)cn1 + O=C(Nc1ccccc1)c1cc([N+](=O)[O-])ccc1Cl [GW9662] (first compound 1 µM, partner dose 2 µM) | 220% | 53.5% | 55.4% | 222% | 42% | 124% | 101% | 184% | 82.2% | 81.1% | 38.4% | 145% | 51% | 122% | 83.3% | 106% | 187% | 86.8% | –
8 | CO[C@@H]1[C@H](N(C)C(=O)c2ccccc2)C[C@H]2O[C@]1(C)n1c3ccccc3c3c4c(c5c6ccccc6n2c5c31)C(=O)NC4 [Midostaurin] + COC(=O)c1sccc1S(=O)(=O)Nc1ccc(Nc2ccccc2)cc1OC [GSK0660] (first compound 0.08 µM, partner dose 1 µM) | 66.5% | 22.5% | 107% | 206% | 160% | 103% | 87.8% | 67.2% | 99.6% | 59.7% | 77.1% | 89.3% | 79.2% | 70.2% | 43.3% | 29.7% | 83.5% | 34.8% | –
9 | Nc1cccc2c1CN(C1CCC(=O)NC1=O)C2=O (stereo not given) [lenalidomide] + N#Cc1c(O)c2c(-c3ccc(-c4ccccc4O)cc3)csc2[nH]c1=O [A769662] (first compound 1 µM, partner dose 2 µM) | 71% | 135% | 78.4% | 147% | 111% | 127% | 83.6% | 86.7% | 66.4% | 89.8% | 179% | 157% | 121% | 44.2% | 42.8% | 47.4% | 83.6% | 69.1% | –
10 | CC1(C)NC(=O)N(c2ccc([N+](=O)[O-])c(C(F)(F)F)c2)C1=O [nilutamide] + Cc1cc([N+](=O)[O-])ccc1NS(=O)(=O)c1cc(Cl)ccc1Cl [FH535] (first compound 1 µM, partner dose 1 µM) | 41.7% | 134% | 57.5% | 117% | 103% | 180% | 141% | 1040% | 251% | 188% | 101% | 151% | 103% | 146% | 38.6% | 32.2% | 97.1% | 72.5% | –
11 | C=CCn1c(=O)c2cnc(Nc3ccc(N4CCN(C)CC4)cc3)nc2n1-c1cccc(C(C)(C)O)n1 + Oc1nc(-c2ccc(C(F)(F)F)cc2)nc2c1CSCC2 [XAV939] (first compound 0.02 µM, partner dose 2 µM) | 210% | 158% | 33.7% | 244% | 209% | 60.7% | 118% | 61.6% | 76.7% | 43.7% | 215% | 110% | 184% | 54.1% | 170% | 41.3% | 80.9% | 305% | –
12 | Cn1cncc1[C@@](N)(c1ccc(Cl)cc1)c1ccc2c(c1)c(-c1cccc(Cl)c1)cc(=O)n2C [tipifarnib] + CC(C)CCN1c2nc(Nc3cc(F)c(O)c(F)c3)ncc2N(C)C(=O)C1C [BID1870] (first compound 0.01 µM, partner dose 0.2 µM) | 121% | 231% | 32% | 626% | 133% | 250% | 126% | 194% | 74% | 88.6% | 130% | 124% | 80.7% | 114% | 63.5% | 174% | 264% | 68% | –
13 | CC(=O)c1c(C)c2cnc(Nc3ccc(N4CCNCC4)cn3)nc2n(C2CCCC2)c1=O [palbociclib] + Oc1cc(-c2nc(-c3ccccc3)[nH]c2-c2ccncc2)ccc1Cl [L779450] (first compound 0.04 µM, partner dose 0.2 µM) | 44.5% | 17.2% | 37% | – | 135% | – | 132% | 33.6% | 88.3% | – | 100% | 109% | 68.9% | 106% | 374% | 112% | 118% | 196% | 46.7%
14 | Clc1ccc(Nc2nnc(Cc3ccncc3)c3ccccc23)cc1 [vatalanib] + COc1ccc(COc2ccc(Cc3cnc(N)nc3N)cc2OC)cc1 [GW2580] (first compound 2 µM, partner dose 1 µM) | 354% | 190% | 35.4% | – | 210% | – | 124% | 77.1% | 105% | – | 181% | 140% | 224% | 106% | 38.6% | 120% | 281% | 87.7% | 34.4%
15 | OCc1c[nH]c2ccccc12 [Indole-3-carbinol] + COc1cc(N2CCC(N3CCN(C)CC3)CC2)ccc1Nc1ncc(Cl)c(Nc2ccccc2S(=O)(=O)C(C)C)n1 [NVP-TAE684] (first compound 0.8 µM, partner dose 0.08 µM) | 172% | 34.6% | 127% | – | 93.6% | – | 97.8% | 117% | 110% | – | 31% | 118% | 90.6% | 189% | 60.5% | 111% | 82.7% | 38.5% | 56%
16 | Clc1ccc(Nc2nnc(Cc3ccncc3)c3ccccc23)cc1 [vatalanib] + COc1ccc2c(c1)CCC1C2CCC2(C)C(NCCCCCCN3C(=O)C=CC3=O)CCC12 [U73122] (first compound 2 µM, partner dose 0.4 µM) | 76.2% | 67.5% | 291% | – | 171% | – | 125% | 108% | 120% | – | 77.9% | 199% | 178% | 219% | 157% | 81.7% | 77.9% | 256% | 191%
17 | OCc1c[nH]c2ccccc12 [Indole-3-carbinol] + COc1ccc(COc2ccc(Cc3cnc(N)nc3N)cc2OC)cc1 [GW2580] (first compound 0.8 µM, partner dose 1 µM) | 67.4% | 67.2% | 79.5% | – | 151% | – | 103% | 82% | 86.8% | – | 135% | 109% | 141% | 103% | 44.9% | 110% | 37.4% | 80.7% | 244%
18 | C=CCNC1=C2C[C@@H](C)C[C@H](OC)[C@H](O)[C@@H](C)/C=C(\C)[C@H](OC(N)=O)[C@@H](OC)/C=C\C=C(/C)C(=O)NC(=CC1=O)C2=O [Tanespimycin] + COc1ccc(COc2ccc(Cc3cnc(N)nc3N)cc2OC)cc1 [GW2580] (first compound 0.002 µM, partner dose 1 µM) | 97.4% | 23.1% | 134% | – | 202% | – | 114% | 106% | 70.7% | – | 140% | 124% | 253% | 167% | 152% | 29.2% | 149% | 42.7% | 51.9%

Retrieved one by one from above:
Row | Compound | cleaved PARP positive nuclei fraction (501Mel) | cleaved PARP positive nuclei fraction (A101D) | cleaved PARP positive nuclei fraction (A2058) | cleaved PARP positive nuclei fraction (A375) | cleaved PARP positive nuclei fraction (C32) | cleaved PARP positive nuclei fraction (CBRC013) | cleaved PARP positive nuclei fraction (CBRC014) | cleaved PARP positive nuclei fraction (CBRC016) | cleaved PARP positive nuclei fraction (CBRC017) | cleaved PARP positive nuclei fraction (CBRC034) | cleaved PARP positive nuclei fraction (COLO792) | cleaved PARP positive nuclei fraction (COLO800) | cleaved PARP positive nuclei fraction (COLO829) | cleaved PARP positive nuclei fraction (G361) | cleaved PARP positive nuclei fraction (IPC-298) | cleaved PARP positive nuclei fraction (IST-MEL1) | cleaved PARP positive nuclei fraction (LB2518-MEL) | cleaved PARP positive nuclei fraction (LOXIMVI) | cleaved PARP positive nuclei fraction (CBRC008)
5 | O=C(Nc1cccc(Cl)c1)Nc1ncc(CCNc2ncnc3ccsc23)s1 + Oc1cc(-c2nc(-c3ccccc3)[nH]c2-c2ccncc2)ccc1Cl [L779450] (first compound 0.0008 µM, partner dose 0.2 µM) | 288% | 181% | 24.1% | 119% | 69.3% | 130% | 96.9% | 178% | 156% | 46% | 168% | 149% | 81.3% | 68.8% | 124% | 88.8% | 188% | 113% | –
13 | CC(=O)c1c(C)c2cnc(Nc3ccc(N4CCNCC4)cn3)nc2n(C2CCCC2)c1=O [palbociclib] + Oc1cc(-c2nc(-c3ccccc3)[nH]c2-c2ccncc2)ccc1Cl [L779450] (first compound 0.04 µM, partner dose 0.2 µM) | 44.5% | 17.2% | 37% | – | 135% | – | 132% | 33.6% | 88.3% | – | 100% | 109% | 68.9% | 106% | 374% | 112% | 118% | 196% | 46.7%
